Test results reported in paper PMC3382619.
Results are given in words; binding and its absence hold for the method and conditions named. Binding seen in cells or lysates may run through a third protein. Some results given as binding are weak or reduced against the parent protein; the word gives no strength.

By UniProt entry, the sequences of proteins in these tests, tags left out.
UniProt P62258: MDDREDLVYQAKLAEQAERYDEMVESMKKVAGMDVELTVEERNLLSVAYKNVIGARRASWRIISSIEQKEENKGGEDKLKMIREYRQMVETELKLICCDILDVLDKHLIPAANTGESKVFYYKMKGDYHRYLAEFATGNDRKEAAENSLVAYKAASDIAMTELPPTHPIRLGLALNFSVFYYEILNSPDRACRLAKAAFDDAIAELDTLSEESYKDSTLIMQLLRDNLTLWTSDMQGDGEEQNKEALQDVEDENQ
UniProt Q9Y696: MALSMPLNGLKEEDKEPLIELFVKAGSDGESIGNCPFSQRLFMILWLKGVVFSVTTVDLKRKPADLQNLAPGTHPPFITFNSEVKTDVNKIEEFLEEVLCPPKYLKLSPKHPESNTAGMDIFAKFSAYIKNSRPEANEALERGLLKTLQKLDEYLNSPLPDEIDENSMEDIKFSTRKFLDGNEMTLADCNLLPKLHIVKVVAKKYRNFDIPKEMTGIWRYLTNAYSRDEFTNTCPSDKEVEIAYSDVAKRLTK

Target: 14-3-3 epsilon (human (endogenous in U251)) (UniProt P62258)
Assay: co-IP; endogenous proteins in U251 lysate (RIPA buffer), immune complexes on protein A-Sepharose beads, washed with PBS; control cells, cells in EBSS (starvation) and cells transfected with CLIC4 siRNA; the precipitating antibody is not stated

CLIC4 (from UniProt Q9Y696 1-253)
binding: binds
